Experimental data from the supplement of paper PMC12823440, “Inhibitors supercharge kinase turnover through native proteolytic circuits” (Nature, 2025).
Counter-ions that a name gives are not always drawn. This is one part of the list. The calls rarely recur for the same compound in another form.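 Kinases, fused to nanoluciferase, were expressed in K562 cells; luminescence was measured every 4 h from 2 to 18 h as percent of control (DMSO = 100%, positive control = 0%). A time point is decreased if signal falls significantly (2 sigma). Hits were called by the authors by a rule that is not shown; the count of time points alone does not decide it.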

Biological target: HER2 (UniProt P04626)
Assay: kinase-Nluc reporter destabilization hit call (1 = scored as downregulated) (binary); higher = compound decreases kinase abundance
Details: K562; 2-18 h

kinase-Nluc reporter destabilization hit call, inactive:
Cc1[nH]c(/C=C2\C(=O)Nc3ccccc32)c(C)c1CCC(=O)O [(Z)-Orantinib] (10 µM) 0
NC(=O)c1ccc(-c2nc(-c3ccc4c(c3)OCCO4)c(-c3ccccn3)[nH]2)cc1 (10 µM) 0
CCNc1nc(Nc2cc(F)c(C(=O)N3CCOCC3)cc2OC)ncc1C(F)(F)F [GNE-7915 (tosylate)] (10 µM) 0
Cc1cc(O)c2c(c1)C(=O)c1cc(O)cc(O)c1C2=O [Emodin] (10 µM) 0
Cc1ccc(C(=O)Nc2ccc(Oc3cc4cnn(C)c4cc3-c3cn[nH]c3)c(F)c2)c(=O)n1-c1ccc(F)cc1 [Merestinib dihydrochloride] (2.5 µM) 0
C=CC(=O)Nc1cc(C)ccc1Nc1nc(Nc2cc(OC)ncc2C)ncc1C(F)(F)F (10 µM) 0
Oc1cc(O)c2cc(O)c(-c3cc(O)c(O)c(O)c3)[o+]c2c1 [Delphinidin (chloride)] (10 µM) 0
O=C1NC(=O)/C(=C\c2cccc(C(F)(F)F)c2)S1 (2.5 µM) 0
Cc1nc2sccn2c(=O)c1CCN1CCC(=C(c2ccccc2)c2ccc(F)cc2)CC1 (10 µM) 0
CCc1cc2c(cc1N1CCC(N3CCOCC3)CC1)C(C)(C)c1[nH]c3cc(C#N)ccc3c1C2=O [Alectinib (Hydrochloride)] (2 µM) 0
FC(F)(c1ccc2ncccc2c1)c1nnc2ccc(-c3ccncc3)nn12 (10 µM) 0
O=C(N/N=C/c1coc2ccccc2c1=O)c1cccnc1 (10 µM) 0
O=C(Nc1ccc(CN2CCOCC2)cc1)c1ccc(-c2cccc(Cl)c2)o1 (10 µM) 0
NC(=O)c1nnc(N[C@@H]2CCCC[C@@H]2N)nc1Nc1cccc2cc[nH]c12 (10 µM) 0
COc1cc2ncc(-c3ccccc3)nc2cc1OC [Tyrphostin AG1296] (10 µM) 0
O=C(NOCC(O)CO)c1cc(Br)c(F)c(F)c1Nc1ccc(I)cc1F (stereo not drawn) (2.5 µM) 0
Cn1cnc(Cn2ccc3ccc(CNCc4[nH]c5ccccc5c4[C@H]4NC(=O)c5ccc(O)cc54)cc32)c1 (10 µM) 0
CC(=O)c1c(C)cc2cccc(O)c2c1O [Nepodin] (10 µM) 0
COc1cc(Nc2ncc(F)c(Nc3ccc4c(n3)N(COP(=O)(O)O)C(=O)C(C)(C)O4)n2)cc(OC)c1OC [Fostamatinib (disodium hexahydrate)] (10 µM) 0
Cc1ccccc1-c1c2nccc(-c3ccc(F)cc3F)c2cc[n+]1[O-] (10 µM) 0
Cn1nccc1Nc1nccc(-c2ccn([C@H](CO)c3ccc(Cl)c(F)c3)c(=O)c2)n1 [Ravoxertinib hydrochloride] (10 µM) 0
Nc1nc(F)nc2c1ncn2[C@@H]1O[C@H](CO)[C@@H](O)[C@@H]1O [Fludarabine] (10 µM) 0
O=C(CSC1=NCCN1)NC1CCCCCC1 [ICCB-19 (hydrochloride)] (2.5 µM) 0
CNC(=O)c1c(F)cccc1Nc1nc(Nc2cc3c(cc2OC)CCN3C(=O)CN(C)C)nc2[nH]ccc12 (10 µM) 0
COc1ccc(-c2ccc3c(N4CCOCC4)nc(N4C[C@@H](C)O[C@@H](C)C4)nc3n2)cc1CO (2.5 µM) 0
CC1=C(C(=O)O)N2C(=O)[C@@H](NC(=O)[C@H](N)C3=CCC=CC3)[C@H]2SC1 [Cephradine] (10 µM) 0
Cc1c(-c2c(F)cc(C(N)=O)c3[nH]c4c(c23)CC[C@H](C(C)(C)O)C4)cccc1-n1c(=O)c2cccc(F)c2n(C)c1=O (2.5 µM) 0
Cn1ncc(Cl)c1-c1cc(C(=O)N[C@H](CN)Cc2ccc(F)c(F)c2)oc1Cl [Uprosertib] (10 µM) 0
Cc1cccc(Oc2cnc(=O)[nH]c2)c1 [Tolimidone] (10 µM) 0
C[C@@H]1CCN(C(=O)CC#N)C[C@@H]1N(C)c1ncnc2[nH]ccc12 [Tofacitinib (citrate)] (10 µM) 0
COc1ccc(OC)c(C2C(C#N)=C(N)Oc3n[nH]c(-c4ccc5ccccc5c4)c32)c1 (stereo not drawn) (10 µM) 0
C=C1C(=O)O[C@H]2C[C@H](C)C(/C=C/C(C)=O)=CC[C@H]12 [Xanthatin] (2.5 µM) 0
C[C@]1(O)CCN(c2nc(N3C[C@H](O)[C@@H](O)C3)cc(C(F)(F)F)c2C#N)C1 (10 µM) 0
Cc1cc(Nc2ncnc3ccc(NC4=NC(C)(C)CO4)cc23)ccc1Oc1ccn2ncnc2c1 [Tucatinib (hemiethanolate)] (2.5 µM) 0
CCN1CCN(Cc2ccc(Nc3ncc(F)c(-c4cc(F)c5nc(C)n(C(C)C)c5c4)n3)nc2)CC1 [Abemaciclib (methanesulfonate)] (10 µM) 0
Cc1cc(=O)oc2c(C=O)c(O)ccc12 (10 µM) 0
CC1(C)C(O[C@@H]2OC[C@@H](O)[C@H](O)[C@H]2O)CC[C@]23CC24CC[C@]2(C)[C@@H]([C@@]5(C)CC[C@@H](C(C)(C)O)O5)[C@H](O)C[C@@]2(C)C4C[C@@H](O[C@@H]2O[C@H](CO)[C@@H](O)[C@H](O)[C@H]2O)C13 (stereo partly drawn) [Astragaloside IV] (10 µM) 0
CC[C@@H](Oc1nc(Oc2cc(C)cc(-c3cccc(CN)c3)c2)c(F)cc1F)C(=O)O (10 µM) 0

Retrieved one by one from above (2):
kinase-Nluc reporter destabilization hit call, inactive:
Cn1nccc1Nc1nccc(-c2ccn([C@H](CO)c3ccc(Cl)c(F)c3)c(=O)c2)n1 [Ravoxertinib hydrochloride] (10 µM) 0
CC(=O)c1c(C)cc2cccc(O)c2c1O [Nepodin] (10 µM) 0
